# Reference: the supplement of paper PMC12067093, “Discovery and optimisation of a covalent ligand for TRIM25 and its application to targeted protein ubiquitination” (Chemical Science, 2025)
# Amino acid sequences for entries named in this document (tags omitted). A change or cut given only in a name is not applied to a line headed by its entry.
# UniProt P29762, whole entry, looked up: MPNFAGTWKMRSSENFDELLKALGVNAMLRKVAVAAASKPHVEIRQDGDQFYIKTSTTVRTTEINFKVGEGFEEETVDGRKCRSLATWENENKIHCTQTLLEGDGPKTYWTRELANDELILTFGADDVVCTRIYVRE
# UniProt O75534: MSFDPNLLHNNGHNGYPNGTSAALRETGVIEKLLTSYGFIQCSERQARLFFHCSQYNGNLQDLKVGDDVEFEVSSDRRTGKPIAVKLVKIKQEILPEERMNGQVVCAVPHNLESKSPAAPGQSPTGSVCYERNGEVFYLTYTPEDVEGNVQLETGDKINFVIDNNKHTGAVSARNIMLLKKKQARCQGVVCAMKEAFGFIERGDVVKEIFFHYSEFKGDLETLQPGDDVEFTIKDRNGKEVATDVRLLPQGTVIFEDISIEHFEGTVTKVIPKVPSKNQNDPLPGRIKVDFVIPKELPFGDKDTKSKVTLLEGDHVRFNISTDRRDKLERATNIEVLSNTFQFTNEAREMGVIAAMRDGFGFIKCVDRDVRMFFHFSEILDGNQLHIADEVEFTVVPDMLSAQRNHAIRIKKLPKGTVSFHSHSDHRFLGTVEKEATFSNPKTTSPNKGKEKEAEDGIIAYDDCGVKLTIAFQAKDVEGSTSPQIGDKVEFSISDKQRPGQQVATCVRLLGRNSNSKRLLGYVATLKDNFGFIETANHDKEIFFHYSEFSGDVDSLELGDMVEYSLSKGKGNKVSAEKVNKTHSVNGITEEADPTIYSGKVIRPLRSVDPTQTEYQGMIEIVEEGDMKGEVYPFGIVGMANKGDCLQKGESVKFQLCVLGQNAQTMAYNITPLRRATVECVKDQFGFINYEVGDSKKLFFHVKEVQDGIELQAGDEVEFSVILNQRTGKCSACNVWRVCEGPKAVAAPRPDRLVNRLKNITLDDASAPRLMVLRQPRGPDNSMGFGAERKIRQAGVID
# UniProt Q9UKF6: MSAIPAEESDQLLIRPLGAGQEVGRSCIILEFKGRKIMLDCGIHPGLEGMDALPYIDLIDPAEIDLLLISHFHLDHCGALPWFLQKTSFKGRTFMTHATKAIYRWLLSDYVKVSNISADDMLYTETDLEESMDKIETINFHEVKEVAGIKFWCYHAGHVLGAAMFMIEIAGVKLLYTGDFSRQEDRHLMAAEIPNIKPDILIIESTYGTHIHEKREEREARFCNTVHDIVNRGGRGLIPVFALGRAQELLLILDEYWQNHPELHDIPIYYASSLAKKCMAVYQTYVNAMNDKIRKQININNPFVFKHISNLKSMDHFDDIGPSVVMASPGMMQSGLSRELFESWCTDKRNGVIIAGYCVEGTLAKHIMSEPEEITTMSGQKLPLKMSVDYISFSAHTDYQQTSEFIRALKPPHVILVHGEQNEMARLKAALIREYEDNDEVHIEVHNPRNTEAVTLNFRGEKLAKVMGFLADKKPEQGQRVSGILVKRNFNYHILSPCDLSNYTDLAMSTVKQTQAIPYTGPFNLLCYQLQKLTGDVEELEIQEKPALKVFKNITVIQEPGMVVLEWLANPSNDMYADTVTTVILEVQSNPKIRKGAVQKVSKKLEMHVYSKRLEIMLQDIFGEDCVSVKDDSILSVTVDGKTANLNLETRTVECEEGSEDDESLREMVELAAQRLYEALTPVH
# UniProt Q8NI60: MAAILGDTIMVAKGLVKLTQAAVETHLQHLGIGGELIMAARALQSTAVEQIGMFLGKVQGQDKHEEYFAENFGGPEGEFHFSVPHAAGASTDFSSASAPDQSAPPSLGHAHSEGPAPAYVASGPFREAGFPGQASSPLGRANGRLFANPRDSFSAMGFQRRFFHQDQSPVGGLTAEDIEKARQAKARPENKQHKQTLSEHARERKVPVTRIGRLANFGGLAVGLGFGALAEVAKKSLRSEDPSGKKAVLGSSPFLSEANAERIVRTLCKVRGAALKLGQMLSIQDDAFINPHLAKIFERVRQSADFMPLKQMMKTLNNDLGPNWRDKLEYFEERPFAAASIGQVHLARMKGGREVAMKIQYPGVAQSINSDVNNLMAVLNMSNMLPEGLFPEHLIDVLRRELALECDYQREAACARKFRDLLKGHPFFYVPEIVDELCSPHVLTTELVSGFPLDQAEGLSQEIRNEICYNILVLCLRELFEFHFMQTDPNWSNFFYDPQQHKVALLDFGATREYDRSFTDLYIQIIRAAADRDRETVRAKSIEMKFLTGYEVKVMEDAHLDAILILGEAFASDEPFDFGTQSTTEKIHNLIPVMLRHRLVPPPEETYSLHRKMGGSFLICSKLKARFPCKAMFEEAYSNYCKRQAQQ
# UniProt Q10570: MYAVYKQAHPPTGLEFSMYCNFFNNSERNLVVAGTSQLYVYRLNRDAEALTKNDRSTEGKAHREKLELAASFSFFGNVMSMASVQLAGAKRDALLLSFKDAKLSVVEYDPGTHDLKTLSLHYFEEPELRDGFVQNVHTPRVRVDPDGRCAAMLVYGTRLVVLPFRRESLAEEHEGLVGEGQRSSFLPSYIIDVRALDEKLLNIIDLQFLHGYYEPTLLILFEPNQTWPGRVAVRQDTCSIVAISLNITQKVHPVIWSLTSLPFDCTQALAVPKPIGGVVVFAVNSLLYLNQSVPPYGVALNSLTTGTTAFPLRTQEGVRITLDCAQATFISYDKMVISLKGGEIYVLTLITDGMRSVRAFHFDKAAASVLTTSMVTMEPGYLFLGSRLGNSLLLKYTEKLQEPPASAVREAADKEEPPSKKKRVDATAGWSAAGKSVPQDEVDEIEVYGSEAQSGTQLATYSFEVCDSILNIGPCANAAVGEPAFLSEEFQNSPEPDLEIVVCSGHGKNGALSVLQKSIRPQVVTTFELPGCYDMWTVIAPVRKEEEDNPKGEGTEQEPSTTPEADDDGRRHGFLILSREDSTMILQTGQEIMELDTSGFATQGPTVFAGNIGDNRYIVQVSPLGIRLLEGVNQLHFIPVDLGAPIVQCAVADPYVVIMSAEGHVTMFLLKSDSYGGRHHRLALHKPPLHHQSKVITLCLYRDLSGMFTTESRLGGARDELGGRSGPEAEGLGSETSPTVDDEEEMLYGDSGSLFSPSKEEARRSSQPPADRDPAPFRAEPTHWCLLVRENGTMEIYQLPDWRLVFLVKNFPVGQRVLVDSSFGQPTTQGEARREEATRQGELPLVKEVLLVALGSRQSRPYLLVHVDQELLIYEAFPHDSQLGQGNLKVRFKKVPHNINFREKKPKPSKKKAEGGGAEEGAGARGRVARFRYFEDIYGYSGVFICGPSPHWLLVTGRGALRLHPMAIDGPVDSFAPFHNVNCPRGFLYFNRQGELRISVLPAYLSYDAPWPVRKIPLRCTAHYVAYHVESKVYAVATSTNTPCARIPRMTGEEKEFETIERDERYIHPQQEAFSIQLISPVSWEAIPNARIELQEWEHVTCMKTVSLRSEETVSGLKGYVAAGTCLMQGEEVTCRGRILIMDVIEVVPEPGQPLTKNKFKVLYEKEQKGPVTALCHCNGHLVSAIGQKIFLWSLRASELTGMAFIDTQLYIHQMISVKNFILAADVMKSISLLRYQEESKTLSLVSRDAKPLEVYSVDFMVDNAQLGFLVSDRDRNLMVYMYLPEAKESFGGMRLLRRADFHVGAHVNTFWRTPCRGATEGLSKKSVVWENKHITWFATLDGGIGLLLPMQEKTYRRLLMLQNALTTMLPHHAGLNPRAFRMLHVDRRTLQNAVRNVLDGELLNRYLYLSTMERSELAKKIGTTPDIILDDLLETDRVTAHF
# UniProt P41240: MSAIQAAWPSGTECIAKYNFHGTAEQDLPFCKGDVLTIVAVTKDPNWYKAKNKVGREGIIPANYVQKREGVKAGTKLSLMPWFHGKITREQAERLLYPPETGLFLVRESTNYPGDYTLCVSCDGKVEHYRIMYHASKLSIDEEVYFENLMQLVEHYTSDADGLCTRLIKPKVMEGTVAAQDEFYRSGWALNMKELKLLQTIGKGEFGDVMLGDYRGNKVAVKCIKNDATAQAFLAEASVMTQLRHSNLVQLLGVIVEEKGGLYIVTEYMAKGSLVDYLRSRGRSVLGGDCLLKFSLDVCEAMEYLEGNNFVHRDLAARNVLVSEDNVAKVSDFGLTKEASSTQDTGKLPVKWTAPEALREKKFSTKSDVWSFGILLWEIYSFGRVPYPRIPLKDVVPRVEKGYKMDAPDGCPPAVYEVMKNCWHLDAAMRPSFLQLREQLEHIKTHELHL
# UniProt P49711: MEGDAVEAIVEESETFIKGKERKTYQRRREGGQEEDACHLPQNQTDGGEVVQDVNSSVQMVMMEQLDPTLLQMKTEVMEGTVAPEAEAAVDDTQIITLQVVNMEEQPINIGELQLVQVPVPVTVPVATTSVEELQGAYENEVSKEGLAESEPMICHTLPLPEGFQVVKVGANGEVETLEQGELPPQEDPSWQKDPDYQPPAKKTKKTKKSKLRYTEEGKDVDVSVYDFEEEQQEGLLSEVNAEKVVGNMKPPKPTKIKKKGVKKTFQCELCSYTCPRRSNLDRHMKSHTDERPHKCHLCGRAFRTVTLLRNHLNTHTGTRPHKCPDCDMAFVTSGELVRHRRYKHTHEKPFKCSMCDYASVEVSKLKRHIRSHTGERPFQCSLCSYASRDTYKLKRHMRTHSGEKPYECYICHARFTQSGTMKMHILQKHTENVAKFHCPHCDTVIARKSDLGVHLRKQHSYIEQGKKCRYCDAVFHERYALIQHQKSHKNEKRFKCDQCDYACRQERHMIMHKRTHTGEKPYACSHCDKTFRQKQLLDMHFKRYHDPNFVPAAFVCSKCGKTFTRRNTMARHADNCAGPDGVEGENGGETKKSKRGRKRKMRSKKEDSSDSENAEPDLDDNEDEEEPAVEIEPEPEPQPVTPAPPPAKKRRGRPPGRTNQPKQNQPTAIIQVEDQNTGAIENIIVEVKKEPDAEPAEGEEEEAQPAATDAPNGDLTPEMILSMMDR
# UniProt Q9ULV4, whole entry, looked up: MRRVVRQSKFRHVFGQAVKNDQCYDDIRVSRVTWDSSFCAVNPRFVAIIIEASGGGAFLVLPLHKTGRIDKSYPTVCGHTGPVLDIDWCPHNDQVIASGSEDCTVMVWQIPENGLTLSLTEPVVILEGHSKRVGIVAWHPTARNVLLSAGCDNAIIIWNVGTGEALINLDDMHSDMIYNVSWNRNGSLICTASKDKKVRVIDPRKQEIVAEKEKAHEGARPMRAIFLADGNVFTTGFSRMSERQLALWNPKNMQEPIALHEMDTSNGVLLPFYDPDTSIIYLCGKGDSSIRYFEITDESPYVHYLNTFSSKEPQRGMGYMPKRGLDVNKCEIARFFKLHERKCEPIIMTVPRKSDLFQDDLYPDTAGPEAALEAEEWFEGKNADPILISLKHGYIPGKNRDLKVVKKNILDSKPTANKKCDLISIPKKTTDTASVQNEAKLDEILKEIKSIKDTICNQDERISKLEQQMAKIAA
# UniProt P50416: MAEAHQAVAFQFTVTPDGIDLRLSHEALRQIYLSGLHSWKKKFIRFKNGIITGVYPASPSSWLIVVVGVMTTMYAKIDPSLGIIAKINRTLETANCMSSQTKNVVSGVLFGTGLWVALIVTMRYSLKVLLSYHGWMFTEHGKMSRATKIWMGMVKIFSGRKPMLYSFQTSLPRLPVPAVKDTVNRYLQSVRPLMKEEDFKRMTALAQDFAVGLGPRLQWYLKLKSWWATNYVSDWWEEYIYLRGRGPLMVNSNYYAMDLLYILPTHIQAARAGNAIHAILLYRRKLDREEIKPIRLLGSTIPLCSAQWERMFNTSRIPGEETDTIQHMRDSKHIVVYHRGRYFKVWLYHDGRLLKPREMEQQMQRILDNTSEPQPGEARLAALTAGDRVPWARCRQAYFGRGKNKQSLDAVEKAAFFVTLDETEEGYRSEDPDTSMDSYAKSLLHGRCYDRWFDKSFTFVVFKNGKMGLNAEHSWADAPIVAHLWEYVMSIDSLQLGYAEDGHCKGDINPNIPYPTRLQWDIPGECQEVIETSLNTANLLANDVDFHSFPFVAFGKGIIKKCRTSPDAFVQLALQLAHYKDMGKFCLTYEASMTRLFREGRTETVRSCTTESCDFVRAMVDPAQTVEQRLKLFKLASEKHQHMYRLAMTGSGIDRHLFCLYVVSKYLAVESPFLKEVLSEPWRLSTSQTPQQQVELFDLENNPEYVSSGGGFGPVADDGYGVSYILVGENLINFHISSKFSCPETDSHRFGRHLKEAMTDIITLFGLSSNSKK
# UniProt Q01459: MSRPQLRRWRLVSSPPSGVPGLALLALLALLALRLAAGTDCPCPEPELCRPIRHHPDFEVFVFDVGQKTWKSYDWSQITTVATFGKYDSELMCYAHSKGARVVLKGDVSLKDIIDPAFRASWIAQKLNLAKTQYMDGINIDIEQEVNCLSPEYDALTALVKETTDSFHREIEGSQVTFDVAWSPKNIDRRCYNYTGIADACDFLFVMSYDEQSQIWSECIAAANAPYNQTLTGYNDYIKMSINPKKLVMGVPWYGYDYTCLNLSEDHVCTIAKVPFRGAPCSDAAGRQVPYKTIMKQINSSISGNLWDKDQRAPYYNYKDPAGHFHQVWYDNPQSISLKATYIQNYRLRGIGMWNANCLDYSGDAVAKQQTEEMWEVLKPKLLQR
# Some of the results follow.
# Compound: CC1Cc2ccccc2N1C(=O)C1CCCN(C1)C(=O)CCl (mixture of isomers) [TRIM25 ligand 11 (diastereomer mixture)]
# Test: probe-labelled cysteine peptide fold change vs DMSO (competition) (log2 fold change); higher = less target engagement (more negative = stronger competition)
# Conditions: THP-1, incubation time: 4 h
# 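Also: competitive chemoproteomic profiling in live THP-1 cells with an iodoacetamide desthiobiotin (IA-DTB) probe, comparing probe-labelled peptide intensities in compound-treated cells against DMSO-treated controls.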
Target,probe-labelled cysteine peptide fold change (10 µM),probe-labelled cysteine peptide fold change (50 µM)
CTC1_Q2NKJ3_535_NAHNEILEEPHHCPLQK (UniProt Q2NKJ3),-0.00774,-0.0125
CRABP1_P29762_130_ELANDELILTFGADDVVCTR (UniProt P29762),-0.139,-0.0524
COX6B1_P14854_30_NCWQNYLDFHR (UniProt P14854),-0.0828,-0.0345
CSDE1_O75534_739_VCEGPK (UniProt O75534),-0.0487,0.0555
CPSF3_Q9UKF6_498_RNFNYHILSPCDLSNYTDLAMSTVK (UniProt Q9UKF6),-0.13,-0.173
COQ8A_Q8NI60_620_KMGGSFLICSK (UniProt Q8NI60),-0.292,-0.253
CPS1_P31327_1256_GNDVLVIECNLR (UniProt P31327),-0.0458,0.0903
CPSF1_Q10570_983_LHPMAIDGPVDSFAPFHNVNCPR (UniProt Q10570),0.118,0.0815
COQ8A_Q8NI60_641_AMFEEAYSNYCK (UniProt Q8NI60),0.0929,-0.0413
CSK_P41240_164_LSIDEEVYFENLMQLVEHYTSDADGLCTR (UniProt P41240),-0.227,-0.228
CSE1L_P55060_85_ICEADR (UniProt P55060),-0.0358,0.149
CSDE1_O75534_657_FQLCVLGQNAQTMAYNITPLRR (UniProt O75534),-0.297,-0.257
CSK_P41240_411_MDAPDGCPPAVYEVMK (UniProt P41240),-0.115,-0.116
CRYBG1_Q9Y4K1_581+609_EVQLPTCHSNEPEVVSVASCAPPQEEVLGNEHSHCTAELAAK (UniProt Q9Y4K1),0.00451,-0.813
CTNNBL1_Q8WYA6_370_VLDHAMIGPEGTDNCHK (UniProt Q8WYA6),-0.0184,-0.103
CPQ_Q9Y646_233_IPTACITVEDAEMMSR (UniProt Q9Y646),-0.00737,-0.0882
CTCF_P49711_155_EGLAESEPMICHTLPLPEGFQVVK (UniProt P49711),-0.14,-0.261
CPSF1_Q10570_532_SIRPQVVTTFELPGCYDMWTVIAPVRK (UniProt Q10570),0.135,-0.0973

Target,probe-labelled cysteine peptide fold change (10 µM),probe-labelled cysteine peptide fold change (50 µM)
CORO1C_Q9ULV4_420_CDLISIPK (UniProt Q9ULV4),-0.212,-0.227
CORO1C_Q9ULV4_39_VTWDSSFCAVNPR (UniProt Q9ULV4),0.0602,-0.0375
CRELD2_Q6UXH1_288+294_EHGQCADVDECSLAEK (UniProt Q6UXH1),-0.0382,0.065
CRACR2A_Q9BSW2_29_GSGACLHPLDSLEQK (UniProt Q9BSW2),-0.1,-0.136
CTCF_P49711_299_CHLCGR (UniProt P49711),0.0219,0.0588
CRYL1_Q9Y2S2_125_VILSSSTSCLMPSK (UniProt Q9Y2S2),-0.101,-0.108
CSNK2B_P67870_140_CMDVYTPK (UniProt P67870),-0.081,-0.0226
CSTF1_Q05048_296_CITTFEK (UniProt Q05048),0.0929,0.14
CSNK1D_P48730_241_MSTPIEVLCK (UniProt P48730),-0.145,-0.175
CSTF2_P33240_62_GYGFCEYQDQETALSAMR (UniProt P33240),-0.512,-0.471
COQ8B_Q96D53_499_LAGAFLACAHLR (UniProt Q96D53),-0.06,0.0819
CSDE1_O75534_106_MNGQVVCAVPHNLESK (UniProt O75534),0.118,-0.139
CSTF2T_Q9H0L4_441_RGMETCAMETR (UniProt Q9H0L4),-0.0411,-0.0952
CPT1A_P50416_742_FSCPETDSHR (UniProt P50416),0.0238,-0.0782
CORO7_P57737_695_CLLVSGFDSQSER (UniProt P57737),-0.101,0.0403
CTBS_Q01459_93_YDSELMCYAHSK (UniProt Q01459),0.0533,0.0371
CORO1B_Q9BR76_192+195_LDSLHPDLIYNVSWNHNGSLFCSACK (UniProt Q9BR76),0.324,-0.0495

# Random excerpt: two records from the list, in no set order.
Target,probe-labelled cysteine peptide fold change (10 µM),probe-labelled cysteine peptide fold change (50 µM)
CSDE1_O75534_739_VCEGPK (UniProt O75534),-0.0487,0.0555
CPSF3_Q9UKF6_498_RNFNYHILSPCDLSNYTDLAMSTVK (UniProt Q9UKF6),-0.13,-0.173
